The source of these data is PubChem BioAssay AID1487 (National Center for Advancing Translational Sciences (NCATS), 2009).

The experiment can be described thus: qHTS Assay for Modulators of Lamin A Splicing. The settings on record: HeLa LMNA splicing GFP/RFP minigene ratio, 48 h. The procedure, abridged:
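S3 HeLa cells stably expressing lamin A-EGFP splicing minigene plus DsRed2, 600 cells/well, 48 h compound exposure at 37C. Laser-scanning cytometry; analysed as GFP (500-530 nm)/RFP (575-640 nm) total intensity ratio; 0.5% DMSO vehicle.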

Where [1] appears, read: measured here: GFP splicing reporter channel.
Where [2] appears, read: measured here: RFP viability control channel.

SMILES strings stand for the structures. Values joined by “and” are separate entries in the source; they are usually repeats but may differ in a detail not shown here. Equal values may be shown once. The list shows a part of the results. Shown are side measurements of this screen, not its main read-out; they come without a call. The list favours compounds with an active or inconclusive main result. Potencies come from curve fits of mixed quality, noted in brackets.

As a reminder, the AC50 is the midpoint of the concentration-response curve, whichever way the signal moves. Consider `Nc1ccc(O)c(C(=O)O)c1`, for which the AC50 under setting [1] is 0.0631 µM [falling, full curve, poor fit].

`Cc1ccc(C(=O)COC(=O)CNC(=O)c2cccs2)cc1C`: the AC50 under setting [1] is 5.62 µM [rising, single point].

In the case of `CCCN(C(=O)Cc1nc(N)n[nH]1)C1(C(=O)Nc2ccccc2C)CCCCC1`, the AC50 is, setting by setting: under setting [1], 3.16 µM [falling, partial curve, poor fit]; under setting [2], 2.51 µM [falling, partial curve].

For `Cc1ccc2oc3c(c(=O)c2c1)C(c1cccc(O)c1)N(c1ccccn1)C3=O` (configuration not stated), under setting [2], the AC50 was 2.24 µM [rising, full curve, poor fit].

Regarding `COc1ccc(N2C(=O)CC(N(CCc3ccccc3)C(=O)/C=C/C(=O)O)C2=O)cc1` (configuration not stated), the AC50 under setting [2] was 20 µM [falling, partial curve, poor fit].

On to `COCCNC(=O)C1CCC(Cn2c(=S)[nH]c3ccccc3c2=O)CC1` (configuration not stated), for which, under setting [2], the AC50 was 2 µM [rising, partial curve]. Take `Cc1ccc(C(=O)/C=C/c2cn(CN3CCN(C)CC3)c3ccccc23)cc1`: the AC50 under setting [2] was 35.5 µM [rising, single point]. In the case of `Cc1ccc(Cn2nnc3c(=O)[nH]c(C4CCN(S(=O)(=O)c5cc(C)ccc5C)CC4)nc32)cc1`, the AC50 under setting [1] was 35.5 µM [falling, single point] and the AC50 under setting [2] was 11.2 µM [falling, partial curve]. `CC(Nc1cccc2ccccc12)C(=O)N/N=C/c1ccc([N+](=O)[O-])cc1` (configuration not stated): under setting [2], the AC50 was 35.5 µM [rising, partial curve]. Regarding `O=C(CSc1nnc(-c2ccc(OC(F)F)cc2)o1)N1CCOCC1`, the AC50 by setting is: under setting [1], 1 µM [rising, partial curve, poor fit]; under setting [2], 0.0794 µM [rising, full curve, poor fit].

Take `Cc1nn(C)c(C(=O)N/N=C/c2ccc(C(F)(F)F)cc2)c1[N+](=O)[O-]`: the AC50 under setting [1] is 12.6 µM [rising, partial curve]. On to `CCc1c(C)nc2ncnn2c1NCCc1ccc(Cl)cc1`, for which, under setting [2], the AC50 was 0.501 µM [falling, partial curve, poor fit]. Turning to `CCOC(=O)CSc1nc2cccnc2n1C`, the AC50 is, setting by setting: under setting [1], 0.00398 µM [falling, full curve, poor fit]; under setting [2], 0.00316 µM [falling, full curve, poor fit]. Regarding `CN(C(=O)COC(=O)c1cc(NS(=O)(=O)c2cc([N+](=O)[O-])ccc2Cl)ccc1O)C1CCCCC1`, under setting [2], the AC50 was 35.5 µM [rising, single point]. As to `c1ccc2c(c1)CSc1sccc1C2=C1CCNCC1`, the AC50 by setting is: under setting [1], 17.8 µM [rising, single point]; under setting [2], 17.8 µM [rising, single point]. Turning to `Clc1ccccc1CNc1ncnc2c1c(-c1ccccc1)cn2-c1ccccc1`, the AC50 under setting [2] is 35.5 µM [rising, single point].

In the case of `CCOc1ccc(/C=N/OC(C)C(=O)NCc2ccc3c(c2)OCO3)cc1` (configuration not stated), the AC50 reads like this: under setting [1], 6.31 µM [rising, partial curve]; under setting [2], 17.8 µM [rising, partial curve]. With `CCN(CC)CCOC(=O)C1(c2ccc([N+](=O)[O-])cc2)CCCC1`, under setting [2], the AC50 was 0.0282 µM [rising, full curve, poor fit]. On to `O=C(O)c1cn(C2CC2)c2cc(N3CCN(S(=O)(=O)c4ccc5c(c4)OCCO5)CC3)c(F)cc2c1=O`, for which the AC50 reads like this: under setting [1], 35.5 µM [rising, single point]; under setting [2], 17.8 µM [rising, single point]. With `O=C(c1cccs1)N1CCN(Cc2ccc3c(c2)OCO3)CC1`, the AC50 was 11.2 µM [rising, single point] under setting [1] and 17.8 µM [rising, single point] under setting [2]. For `CCOC(=O)c1c(NC(=O)c2cccs2)sc(CC)c1-c1cccs1`, the AC50 is 31.6 µM [rising, single point] under setting [1] and 35.5 µM [rising, single point] under setting [2]. Regarding `CCSc1nc(CC)c2c(c1C#N)CCCC2`, under setting [1], the AC50 is 35.5 µM [rising, single point].

As to `Cc1ccccc1OCc1nnc(SCc2cc(=O)c3cccc(F)c3[nH]2)n1C`, the AC50 under setting [1] is 3.98 µM [falling, full curve, poor fit] and the AC50 under setting [2] is 1.78 µM [falling, full curve]. Take `O=c1c2ccccc2nc(COc2ccccc2)n1/N=C/c1cn[nH]c1-c1ccccc1`: under setting [2], the AC50 is 22.4 µM [rising, single point]. For `Cc1ccnc(N2CCN(C(=O)CSc3nc4ccccc4nc3N3CCCCC3)CC2)c1`, the AC50 by setting is: under setting [1], 11.2 µM [rising, partial curve]; under setting [2], 35.5 µM [rising, single point].

As for `O=C(c1ccc(CSc2nc3ccncc3[nH]2)cc1)N1CCCCC1`, the AC50 runs as follows: under setting [1], 11.2 µM [rising, single point]; under setting [2], 20 µM [rising, single point]. For `COc1ccc(-n2c(C)cc(C(=O)CSc3nnc(-c4ccoc4C)n3C)c2C)cc1`, the AC50 under setting [2] is 31.6 µM [rising, single point].

With `COc1ccc2oc3cc(C)[n+]([O-])c(-c4ccc(Br)cc4)c3c2c1`, the AC50 under setting [2] was 14.1 µM [rising, partial curve]. For the molecule `CN(C)CCCN1c2ccccc2CCc2ccc(Cl)cc21`, the AC50 under setting [1] was 631 nM [falling, partial curve, poor fit] and 20 µM [falling, single point] and 8.91 µM [rising, partial curve]; the AC50 under setting [2] was 35.5 µM [rising, single point] and 12.6 µM [rising, partial curve]. As for `CCCCOc1ccc(C(=O)NCC2(c3ccc(OC)cc3)CCOCC2)cc1`, under setting [2], the AC50 is 17.8 µM [rising, single point].

In the case of `O=C(Nc1ncc2c(n1)-c1ccccc1OC2)c1ccc(F)cc1`, the AC50 under setting [1] was 0.355 µM [rising, full curve]. In the case of `CCOc1cc(CNC(=O)NC2COc3ccc(OC)cc3C2)cc(OCC)c1OCC` (configuration not stated), the AC50 under setting [1] was 0.0251 µM [rising, full curve, poor fit].

On to `CCCCCCSc1nsc(NC(=O)CC(C)C)n1`, for which the AC50 is, setting by setting: under setting [1], 15.8 µM [rising, partial curve]; under setting [2], 22.4 µM [rising, single point]. On to `CC(=O)C1=C(c2ccc(C)c(C)c2)N(C(C)=O)n2c(nnc2-c2ccc(Cl)cc2)S1`, for which the AC50 under setting [1] was 11.2 µM [falling, partial curve] and the AC50 under setting [2] was 22.4 µM [falling, single point].

Consider `Cc1cccc(OCC(=O)Nc2ccc3c(c2)OCO3)c1C`, for which the AC50 under setting [1] is 35.5 µM [rising, single point] and the AC50 under setting [2] is 31.6 µM [rising, single point].

Regarding `Cc1cccc(CNC(=O)CCCn2c(=O)c3cccn3c3ccc(F)cc32)c1`, the AC50 is 0.1 µM [rising, full curve, poor fit] under setting [1] and 14.1 µM [rising, partial curve, poor fit] under setting [2].

In the case of `Cc1nn(CC(=O)NCc2cccc3ccccc23)c(=O)c2ccccc12`, the AC50 under setting [1] is 35.5 µM [falling, single point] and the AC50 under setting [2] is 35.5 µM [falling, single point].

With `N#Cc1cccc(NC(=O)C2CCN(S(=O)(=O)c3ccc4[nH]c(=O)ccc4c3)CC2)c1`, the AC50 is, setting by setting: under setting [1], 0.224 µM [falling, full curve, poor fit]; under setting [2], 0.316 µM [falling, full curve]. In the case of `CCC(C)(C)n1nnnc1C(c1ccc(C)cc1)N(Cc1ccco1)Cc1cccs1` (configuration not stated), under setting [2], the AC50 was 35.5 µM [rising, single point]. Still for that read-out and setting: under `CCCOC(=O)CSC1=C(C#N)C(c2ccccc2OCC)C(C#N)C(=O)N1` (configuration not stated) stands 3.16 µM [rising, full curve, poor fit]. Same read-out and setting: next, `Cc1ccc(SCc2c(-c3ccccc3)nn(C)c2Cl)cc1`: 20 µM [rising, single point]. For the molecule `C/C(=N\NC(=S)Nc1c(C)cccc1C)c1cc2ccccc2o1`, the AC50 reads like this: under setting [1], 0.282 µM [rising, full curve, poor fit]; under setting [2], 5.01 µM [rising, full curve]. Consider `CCc1ccc(NCc2nc(-c3ccccc3)no2)cc1`, for which the AC50 under setting [1] is 12.6 µM [rising, single point].

In the case of `CCC(=O)N1CCc2cc(S(=O)(=O)CCC(=O)Nc3nc(C)cs3)ccc21`, the AC50 under setting [2] is 15.8 µM [rising, single point]. On to `CN(C)S(=O)(=O)c1ccc(C(=O)OCC(=O)NCc2ccccc2)cc1`, for which the AC50 under setting [1] was 0.126 µM [rising, full curve]. For `COc1ccc2nc(C)cc(Nc3ccccc3O)c2c1`, the AC50 under setting [1] is 0.0562 µM [falling, full curve, poor fit]. Turning to `Cc1ccc(N(CC(O)CON=C2c3ccccc3-c3ccccc32)S(C)(=O)=O)cc1` (configuration not stated), the AC50 was 12.6 µM [rising, partial curve] under setting [1] and 31.6 µM [rising, single point] under setting [2].

Consider `CCC(=O)C1=C(c2cccc(OC)c2)N(C(=O)CC)n2c(nnc2C2CCCCC2)S1`, for which the AC50 by setting is: under setting [1], 6.31 µM [falling, single point]; under setting [2], 5.62 µM [falling, single point]. Regarding `CC(=O)N[C@@H](CC(=O)O)C(=O)N[C@@H](CCC(=O)O)C(=O)O`, the AC50 runs as follows: under setting [1], 0.447 µM [falling, full curve]; under setting [2], 0.501 µM [falling, full curve]. Regarding `Cc1cc(C(C)(C)CC(C)(C)C)ccc1OCCOCC[N+](C)(C)Cc1ccccc1`, the AC50 is, setting by setting: under setting [1], 14.1 µM [falling, partial curve, poor fit]; under setting [2], 14.1 µM [falling, partial curve, poor fit]. For `O=C1NC2(CCCc3ccccc32)C(=O)N1CCOc1ccc(Br)cc1` (configuration not stated), the AC50 is, setting by setting: under setting [1], 17.8 µM [rising, partial curve]; under setting [2], 14.1 µM [rising, single point]. Take `O=C(Nc1nnc(-c2ccco2)o1)c1cccc(N2C(=O)CCC2=O)c1`: the AC50 under setting [1] is 0.00891 µM [rising, full curve, poor fit].
